The source of these data is patent US20090297440A1.

Results are given in words; binding and its absence hold for the method and conditions named. A result given as binding can be weak or reduced; the word gives no strength.

One assay deals with soluble HLA-B*0702 (human). Description: fluorescence polarization competition.
On to GAFEIEING [C35 peptide G63 to G71], for which the binding result is on record as “binds”.

With EPGQTSVAP [C35 peptide E4 to P12], the binding entry is on record as “binds”.

For TGAFEIEIN [C35 peptide T62 to N70], the binding result was “binds”.

With NSRPPAVIL [C35 peptide N107 to L115 (analog with Ala substituted for Cys at 112)], the binding entry is reported as “binds”.

Another assay deals with HLA-A*0201 (human). In words: fluorescence polarization competition, test peptide at 100 µM.
On to FEIEINGQL [C35 peptide F65 to L73], for which the binding result is reported as “binds”.

In the case of TYLELASAV [C35 peptide T38 to V46], the binding result was “binds”.

For SGVRIVVEY [C35 peptide S21 to Y29], the binding result was “binds”.

Turning to GTGAFEIEI [C35 peptide G61 to I69], the binding entry is listed as “binds”.

SVAPPPEEV [C35 peptide S9 to V17]: the binding entry is “binds”.
